Hit rate of the full screen: of about 580,000 compounds, about 6,100 (1.1%) were called active. The inconclusive results got no clear call from the source; some entries with a clear call stand among them for comparison. The call rests on the fitted dose curve; in most records, active means well fitted inhibition curve with a large enough effect; inconclusive means small, poorly fitted or top-dose-only effect, or another doubt; inactive means no such curve, though single readings can be large or run the other way. Potencies beside an inconclusive call are fits to weak or partial responses and may not hold up.
biological target: Polyunsaturated fatty acid lipoxygenase ALOX12 (Homo sapiens) (UniProt P18054); assay: Primary qHTS assay for inhibitors of human arachidonate 12S-lipoxygenase (ALOX12): Round 2; details: purified 12hLO, xylenol orange hydroperoxide absorbance; activity change, negative = inhibition: at 108 µM (top of the series) unless noted
Procedure, shortened: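 Purified human 12hLO (150 nM final) in 25 mM Hepes, 0.01% Triton X-100, pH 7.0 was preincubated 15 min at room temperature with compound. Then 40 uM arachidonic acid was added, 30 min. Hydroperoxide was read by Fe-XO absorbance ratio 573/405 nm.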
On the % scale 0 is the no-effect control and ±100 the full control effect; potency means the concentration at half of the fitted maximal effect.

Protein sequences, listed by entry. Tags and fused reporters are not part of them. Lines headed by an entry give the natural chain unless they say otherwise; changes in a name come on top.
UniProt P18054: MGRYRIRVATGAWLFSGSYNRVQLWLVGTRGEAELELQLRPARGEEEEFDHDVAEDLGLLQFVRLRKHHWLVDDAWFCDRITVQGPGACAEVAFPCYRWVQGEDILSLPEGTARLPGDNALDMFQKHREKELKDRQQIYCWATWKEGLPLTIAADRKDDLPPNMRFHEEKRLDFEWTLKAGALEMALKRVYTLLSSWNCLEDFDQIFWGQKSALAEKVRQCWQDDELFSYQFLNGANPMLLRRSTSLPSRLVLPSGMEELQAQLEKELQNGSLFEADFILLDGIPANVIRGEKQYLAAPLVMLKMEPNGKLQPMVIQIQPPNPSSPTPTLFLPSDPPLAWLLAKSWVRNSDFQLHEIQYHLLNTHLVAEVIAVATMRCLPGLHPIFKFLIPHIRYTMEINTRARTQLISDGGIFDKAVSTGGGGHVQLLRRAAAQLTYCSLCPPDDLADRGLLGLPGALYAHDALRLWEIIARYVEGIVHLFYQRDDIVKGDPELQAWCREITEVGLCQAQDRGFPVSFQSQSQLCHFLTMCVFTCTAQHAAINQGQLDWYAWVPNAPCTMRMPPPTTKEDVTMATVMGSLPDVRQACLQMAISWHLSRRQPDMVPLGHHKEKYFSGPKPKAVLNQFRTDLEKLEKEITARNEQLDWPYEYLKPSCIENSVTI

Compound | activity change, negative = inhibition | Potency
Cn1cccc1/C=N\NC(=O)C1COc2ccccc2O1 (configuration not stated) | inactive: -17.7% | –
COc1cc(C2c3c(oc4ccccc4c3=O)C(=O)N2c2nnc(C(C)C)s2)cc(OC)c1OC (configuration not stated) | – | inconclusive: 56.2 µM [inhibitor, partial curve, poor fit]
COc1ncc2nc(C)c(=O)n(C[C@H]3CCCO3)c2n1 | – | inconclusive: 39.8 µM [inhibitor, partial curve, poor fit]
CCC(=O)N1c2ccc(S(=O)(=O)NCCc3ccc(OC)c(OC)c3)cc2CC1C (configuration not stated) | inactive: -8.41% | –
NS(=O)(=O)c1ccc(-c2cccc(/C=C3\SC(=O)NC3=O)c2)cc1 | inactive: -16% | –
O=C(CCc1nc(C2CCCN2C(=O)CC2CCCC2)no1)NCc1ccccc1 (configuration not stated) | inactive: 13.5% | –
Cc1noc(C)c1C(=O)N1CCCc2ccccc21 | – | inconclusive: 89.1 µM [inhibitor, single point]
O=C(c1cc(Cl)ccc1F)N1CCC(Cc2nc(-c3cnccn3)no2)CC1 | – | inconclusive: 8.91 µM [inhibitor, partial curve]
CSCCC(NC(=O)COc1ccccc1)C(=O)NCCOc1ccccc1 (configuration not stated) | – | inconclusive: 89.1 µM [inhibitor, single point]
COC(=O)c1ccc(OCC(=O)NCC(F)(F)F)cc1 | inactive: 13.8% | –
COc1ccc(OC(=O)COc2cccc(C)c2)cc1 | – | inconclusive: 100 µM [inhibitor, single point]
CCOC(=O)c1cccc(NS(=O)(=O)c2cn(C)c(C)n2)c1 | – | inconclusive: 35.5 µM [inhibitor, partial curve, poor fit]
CCN1CCN(S(=O)(=O)c2ccc(Cl)c(C(=O)NC3CCCCC3)c2)CC1 | – | inconclusive: 56.2 µM [inhibitor, partial curve, poor fit]
CC(C)(C)OC(=O)N1CCN(C(=O)c2nc[nH]c2C(=O)N2CCN(c3ccccc3)CC2)CC1 | – | inconclusive: 39.8 µM [inhibitor, partial curve]
CC(CCc1ccccc1)NC(=O)CCC1CCCC1 (configuration not stated) | – | inconclusive: 100 µM [inhibitor, single point]
N#C/C(=C\c1cn(Cc2cccc(F)c2)c2ccccc12)C(N)=O | inactive: -26.5% | –
COc1ccc(C2CC(=O)Nc3c2c(=O)nc(SC)n3C)c(OC)c1 (configuration not stated) | inactive: 2.2% | –
COCCn1c(C)cnc1CCNC(=O)CC(C)C | inactive: 34.2% | –
CN1C(=O)CS(=O)c2ccc(C(=O)NCCC3=CCCCC3)cc21 (configuration not stated) | – | inconclusive: 28.2 µM [inhibitor, partial curve, poor fit]
Fc1ccc(CN2CCSCC2)cc1Br | – | inconclusive: 2.51 µM [inhibitor, full curve, poor fit]
Cc1nc2cc(NC(=O)COc3cccc(F)c3)ccc2o1 | inactive: 7.77% | –
CC1CCN(C(=S)c2cccc(O)c2)CC1 | – | inconclusive: 70.8 µM [inhibitor, partial curve, poor fit]
COc1ccc([C@H]2/C=C\CN(S(C)(=O)=O)[C@@H](C)C(=O)N2Cc2ccc(F)cc2)cc1 | – | inconclusive: 79.4 µM [inhibitor, partial curve, poor fit]
C[C@H](CO)N1C[C@H](C)[C@@H](CN(C)C(=O)Nc2ccccc2)Oc2ccc(NC(=O)Nc3ccc4c(c3)OCO4)cc2C1=O | inactive: 0% | –

Compound | activity change, negative = inhibition | Potency
CCN(CC)CCCN(Cc1cc2cc3c(cc2[nH]c1=O)OCO3)C(=S)Nc1ccccc1 | inactive: -28.4% | –
COc1cc(/C=N/NC(=O)c2nnn(-c3nonc3N)c2C(C)C)ccc1OCc1ccccc1 | inactive: 9.82% | –
CC(C)NCC(O)COC1CCC(C(C)(C)C)CC1 (configuration not stated) | inactive: -7.46% | –
O=C(Cc1cccs1)N1CCC2(CC1)N=C(c1ccc(Cl)cc1)NO2 | – | inconclusive: 25.1 µM [inhibitor, full curve]
CCCCN(C)CCNC(=O)c1cc2c(-c3cccc(OC)c3)nn(C)c2s1 | inactive: -11.7% | –
O=C(c1cccnc1Cl)N(Cc1ccccc1)Cc1ccccc1 | inactive: -2.29% | –
O=S1(=O)N[C@@H](Cc2ccccc2)COc2cccc(N3CCSCC3)c21 | – | inconclusive: 112 µM [inhibitor, partial curve, poor fit]
Cc1ccc(C)c(OCC(O)Cn2nc(-c3cccs3)oc2=O)c1 (configuration not stated) | inactive: -6.94% | –
O=C(C[C@@H]1C[C@H]2O[C@H](CNC3CCCC3)[C@@H](O)[C@H]2O1)N1CCC(F)(F)C1 | – | inconclusive: 63.1 µM [inhibitor, partial curve]
Cc1ccc(N2CCN(C(=S)c3ccc(N(C)C)cc3)CC2)cc1 | – | inconclusive: 8.91 µM [inhibitor, full curve]
CC(=O)c1cccc(NC(=O)c2cc(=O)[nH]c3ccccc23)c1 | inactive: -0.394% | –
Cc1ccc(S(=O)(=O)c2nc(-c3cccs3)oc2SCC(N)=O)cc1 | – | inconclusive: 20 µM [inhibitor, partial curve]
CC(=O)Nc1cccc(NC(=O)c2cc(-c3cccnc3)nc3ccc(Cl)cc23)c1 | inactive: 18% | –
CCOC(=O)C(=Cc1ccc(-n2cncn2)cc1)C(=O)OCC | inactive: -0.843% | –
COc1ccc(/C(C)=N/OCC(=O)Nc2nc3ccccc3s2)cc1OC | – | inconclusive: 31.6 µM [inhibitor, single point]
Cc1cccc(CNc2ncncc2-c2cccnc2)c1 | – | inconclusive: 50.1 µM [inhibitor, partial curve, poor fit]
Cc1c(C(=O)CSc2nnc(C3CC3)n2C2CC2)oc2ccccc12 | inactive: 1.94% | –
Cc1nc(SC(C)c2cc(F)ccc2F)sc1CC(N)=O (configuration not stated) | inactive: 1.42% | –
COCCn1c(CN2CCN(c3ccc(OC)cc3)CC2)nc2c1c(=O)n(C)c(=O)n2C | inactive: -5.43% | –
COc1ccc(S(=O)(=O)Nc2cc3c(cc2NCc2ccccc2)n(C)c(=O)n3C)cc1OC | – | inconclusive: 112 µM [inhibitor, partial curve, poor fit]
Cc1cc(NN=Cc2ccccn2)nc2ccccc12 | – | inconclusive: 100 µM [inhibitor, single point]
O=C(NCc1nnc2n1C(C(=O)NCc1ccc3c(c1)OCO3)CC2)C1CC1 (configuration not stated) | – | inconclusive: 10 µM [inhibitor, full curve, poor fit]
CC(=O)c1ccc(OCC(O)CN2CCN(CC(O)COc3ccc(C(C)=O)cc3)CC2)cc1 (configuration not stated) | inactive: 146% | –

Given as comma-separated lines: part of the list above.
Compound,"activity change, negative = inhibition",Potency
Cc1nc2cc(NC(=O)COc3cccc(F)c3)ccc2o1,inactive: 7.77%,–
CC1CCN(C(=S)c2cccc(O)c2)CC1,–,"inconclusive: 70.8 µM [inhibitor, partial curve, poor fit]"

Source: PubChem BioAssay AID1671190 (National Center for Advancing Translational Sciences (NCATS), 2021)
